Measured values published in PMC3959589 (Analytical and bioanalytical chemistry, 2014).

Chains of the proteins cited; added tags and fusions are not shown. Residues count along the entry.
UniProt P02768, 25-609: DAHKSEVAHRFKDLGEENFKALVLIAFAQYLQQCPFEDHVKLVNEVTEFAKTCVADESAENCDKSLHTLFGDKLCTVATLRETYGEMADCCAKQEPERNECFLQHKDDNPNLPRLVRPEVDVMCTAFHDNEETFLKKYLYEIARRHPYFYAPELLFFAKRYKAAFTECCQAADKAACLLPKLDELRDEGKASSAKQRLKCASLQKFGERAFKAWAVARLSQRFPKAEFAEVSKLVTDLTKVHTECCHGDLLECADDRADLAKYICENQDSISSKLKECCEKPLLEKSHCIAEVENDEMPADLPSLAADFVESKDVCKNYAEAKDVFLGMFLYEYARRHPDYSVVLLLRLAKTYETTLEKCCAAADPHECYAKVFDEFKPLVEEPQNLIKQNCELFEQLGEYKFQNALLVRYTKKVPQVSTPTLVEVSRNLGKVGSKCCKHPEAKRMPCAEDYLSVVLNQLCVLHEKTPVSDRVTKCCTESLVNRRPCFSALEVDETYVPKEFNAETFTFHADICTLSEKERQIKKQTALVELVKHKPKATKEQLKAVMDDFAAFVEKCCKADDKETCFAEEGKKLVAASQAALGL

Legend:
[1] = molecular target: T1, human serum albumin (HSA) (Homo sapiens, UniProt P02768); settings: ITC
[2] = molecular target: T1, human serum albumin (HSA); settings: dose-response, 500 nM Red Mega 500, 0.2 mg/mL HSA
HSA = settings: cited from earlier work

heat generated upon binding [1]: 52.8 ± 2.2 kcal/mol | efficacy of inhibition of HSA–Red Mega 500 binding [2]: comparable to piroxicam
Compound: COc1ccc2cc([C@H](C)C(=O)O)ccc2c1 [naproxen]
efficacy in HSA binding assay (HSA): large efficacy
